This assay has as its target Smad3 (human (endogenous in ccRCC cell lines)), P84022. Briefly: co-IP; co-IP testing Smad2 against Smad3 in the PIM1/Smad complex (Supplementary Figure 2A and B); precipitating antibody not given; protein G-Sepharose beads, overnight at 4 °C. The conditions noted are these: remark: other sources report otherwise.

No constants are given. Whether binding was seen depends on the method and setting. Binding seen in cells or lysates may run through a third protein.

B1: Smad2, Q15796 1-467 (protein)
chain: MSSILPFTPPVVKRLLGWKKSAGGSGGAGGGEQNGQEEKWCEKAVKSLVKKLKKTGRLDELEKAITTQNCNTKCVTIPSTCSEIWGLSTPNTIDQWDTTGLYSFSEQTRSLDGRLQVSHRKGLPHVIYCRLWRWPDLHSHHELKAIENCEYAFNLKKDEVCVNPYHYQRVETPVLPPVLVPRHTEILTELPPLDDYTHSIPENTNFPAGIEPQSNYIPETPPPGYISEDGETSDQQLNQSMDTGSPAELSPTTLSPVNHSLDLQPVTYSEPAFWCSIAYYELNQRVGETFHASQPSLTVDGFTDPSNSERFCLGLLSNVNRNATVEMTRRHIGRGVRLYYIGGEVFAECLSDSAIFVQSPNCNQRYGWHPATVCKIPPGCNLKIFNNQEFAALLAQSVNQGFEAVYQLTRMCTIRMSFVKGWGAEYRRQTVTSTPCWIELHLNGPLQWLDKVLTQMGSPSVRCSSMS
Take B1: the binding result was “no binding”.

Source of the values: PMC5833424.
